We go through nine sequences from US20240131173.

Sequences of proteins named here, by UniProt entry; tags and fusion partners are left off. A change or cut given only in a name is not applied to a line headed by its entry.
UniProt Q04206, whole entry: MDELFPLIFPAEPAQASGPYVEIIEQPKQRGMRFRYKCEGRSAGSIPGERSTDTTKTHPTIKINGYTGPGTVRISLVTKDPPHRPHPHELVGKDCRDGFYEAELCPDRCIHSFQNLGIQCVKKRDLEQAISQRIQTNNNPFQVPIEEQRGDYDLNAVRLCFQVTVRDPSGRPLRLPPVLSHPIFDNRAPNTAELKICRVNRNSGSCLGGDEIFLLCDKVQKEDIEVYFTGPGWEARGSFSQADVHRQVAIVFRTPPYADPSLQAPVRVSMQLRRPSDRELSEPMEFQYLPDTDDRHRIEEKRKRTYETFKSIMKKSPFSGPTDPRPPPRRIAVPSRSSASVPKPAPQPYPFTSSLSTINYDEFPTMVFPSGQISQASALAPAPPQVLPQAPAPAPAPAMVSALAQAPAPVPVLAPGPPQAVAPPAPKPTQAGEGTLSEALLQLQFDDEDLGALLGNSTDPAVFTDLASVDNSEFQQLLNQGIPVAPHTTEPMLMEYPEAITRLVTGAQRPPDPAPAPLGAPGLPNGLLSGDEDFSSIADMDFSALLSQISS
UniProt Q01094: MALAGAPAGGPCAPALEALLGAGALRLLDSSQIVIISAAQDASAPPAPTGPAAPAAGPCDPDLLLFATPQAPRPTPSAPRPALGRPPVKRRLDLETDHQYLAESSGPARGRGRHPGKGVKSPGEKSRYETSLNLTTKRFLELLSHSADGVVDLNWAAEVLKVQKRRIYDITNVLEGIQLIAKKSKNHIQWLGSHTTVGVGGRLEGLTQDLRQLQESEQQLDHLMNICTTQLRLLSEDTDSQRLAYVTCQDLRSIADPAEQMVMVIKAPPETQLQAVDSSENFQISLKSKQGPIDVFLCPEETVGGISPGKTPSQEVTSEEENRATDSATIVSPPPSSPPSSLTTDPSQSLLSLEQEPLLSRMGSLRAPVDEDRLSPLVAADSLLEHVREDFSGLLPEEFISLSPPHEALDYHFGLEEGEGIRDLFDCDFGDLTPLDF

Results from cells or extracts need not show a direct contact. For part of these data: For at least one entry, the source does not settle the construct or the ends of the probe.

Data set [1] concerns the target p65 (RelA, NF-kB subunit) (UniProt Q04206). In words: pull-down. The note with it: protein in a lysate after overexpression, protein details: Flag, expressed in HEK293T, folded or branched DNA.
Data set [2] deals with E2F1 (UniProt Q01094). Nature of the data set: pull-down. The following applies: protein in a lysate after overexpression, protein details: HA, expressed in HEK293T.
The target of data set [3] is p65 (RelA, NF-kB subunit) (UniProt Q04206). In words: competition with a labelled probe. The following applies: protein in a lysate after overexpression, protein details: Flag, expressed in HEK293T, folded or branched DNA.
The target in data set [4] is E2F1 (UniProt Q01094). Nature of the data set: competition with a labelled probe. The note with it: protein in a lysate after overexpression, protein details: HA, expressed in HEK293T.

On to “TGGGGACTTTCCAGTTTCTGGAAAGTCCCCA [Biotin-NF-kB-ODN]”, for which, in data set [1] (5' biotin via NH2-(CH2)2-O-(CH2)2-OH spacer, streptavidin pulldown from lysate, EBC buffer, 4 C, label: biotin), the binding result is “binds”.
“TGGGGACTTTCCAGTTTCTGGAAAGTCCCCA [dNF-kB #4, #7, #15, #16, #18]”: the binding result in data set [1] (5' VHL ligand (VHLL-BCN #4, #7, #15, #16 or #18) conjugated by SPAAC, variant of N3-NF-kB-ODN) is on record as “binds”.
Regarding “CTAGATTTCCCGCG / CTAGCGCGGGAAAT [Biotin-E2F-ODN]”, the binding result with E2F1 [2] (5' biotin on sense strand, streptavidin pulldown from lysate, EBC buffer, 4 C, text prints antisense as SEQ 7, label: biotin) is “binds”.
On to “TGGGGACTTTCCAGTTTCTGGAAAGTCCCCA [dNF-kB #1]”, for which, in data set [3] (5' VHL ligand (VHLL-BCN #1) conjugated by SPAAC, competes with Biotin-NF-kB-ODN, also bridges p65 and GST-VHL complex in pulldown, variant of N3-NF-kB-ODN), the binding result was “binds”.
Take “TGGGGACTTTCCAGTTTCTGGAAAGTCCCCA [N3-NF-kB-ODN]”: the binding result in data set [3] (5' azide via amino modifier C6, excess competes with Biotin-NF-kB-ODN, azide does not affect binding, variant of NF-kB-ODN) is reported as “binds”.
As to “CTAGATTTCCCGCG / CTAGCGCGGGAAAT [N3-E2F-ODN]”, in the data set with E2F1 [4] (5' azide on sense strand, binds as efficiently as E2F-ODN, variant of E2F-ODN), the binding result is on record as “binds”.
As for “CTAGATTTCCCGCG / CTAGCGCGGGAAAT [E2F-ODN]”, the binding result with E2F1 [4] (competes with Biotin-E2F-ODN) is recorded as “binds”.
As for “CTAGATTTCCCGCG / CTAGCGCGGGAAAT [dE2F #15, #16, #17]”, in the data set with E2F1 [2] (5' VHL ligand (VHLL-BCN #15, #16 or #17) on sense strand by SPAAC, ternary complex with GST-VHL complex, #16 and #17 degrade E2F1 in HeLa, variant of N3-E2F-ODN), the binding result is listed as “binds”.
Regarding “TGGGGACTTTCCAGTTTCTGGAAAGTCCCCA [NF-kB-ODN]”, the binding result in data set [3] (excess competes with Biotin-NF-kB-ODN) is recorded as “binds”.
